Paper PMC8152094
These are yes or no findings as the source states them, for the method shown. Binding seen in cells or lysates may run through a third protein. Binding calls can cover weak binding; strength is not graded here. Tags and fused reporters may be left off the sequences shown.

Target: MBP-CesL (enteropathogenic Escherichia coli (EPEC) E2348/69)
Experiment: pull-down; MBP-CesL from a cleared lysate bound to amylose resin and washed; cleared E. coli lysate with the prey loaded on the column; washes with 50 mM Tris-HCl pH 7.4, 500 mM NaCl; eluted with 20 mM maltose; SDS-PAGE and immunoblot; only the target purified

B1: His-EscUC (domain or fragment, UniProt Q9AJ26 215-345)
chain: MSKDEVKREAKDTDGNPEIKGERRRLHSEIQSGSLANNIKKSTVIVKNPTHIAICLYYKLGETPLPLVIETGKDAKALQIIKLAELYDIPVIEDIPLARSLYKNIHKGQYITEDFFEPVAQLIRIAIDLDY
binding: binds
